These are yes or no findings as the source states them, for the method shown. Binding seen in cells or lysates may run through a third protein. A result given as binding can be weak or reduced; the word gives no strength.

Amino acid sequences for entries named in this document (tags omitted). A change or cut given only in a name is not applied to a line headed by its entry.
UniProt P78552: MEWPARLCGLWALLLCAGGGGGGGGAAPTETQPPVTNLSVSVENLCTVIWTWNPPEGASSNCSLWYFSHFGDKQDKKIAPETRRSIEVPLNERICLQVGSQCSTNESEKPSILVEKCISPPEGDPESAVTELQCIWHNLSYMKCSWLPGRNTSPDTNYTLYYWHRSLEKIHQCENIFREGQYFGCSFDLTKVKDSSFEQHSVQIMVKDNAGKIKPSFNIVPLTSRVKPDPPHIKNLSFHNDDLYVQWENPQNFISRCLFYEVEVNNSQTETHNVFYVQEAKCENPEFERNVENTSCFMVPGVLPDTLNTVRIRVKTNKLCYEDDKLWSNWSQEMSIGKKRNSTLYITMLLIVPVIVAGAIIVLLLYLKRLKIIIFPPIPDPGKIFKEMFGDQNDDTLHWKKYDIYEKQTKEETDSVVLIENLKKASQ

Here are results for one molecule from publication PMC9334759.

In the experiment the target is GST-tagged IL13Rα1 (human) (UniProt P78552). As to the kind of experiment: pull-down; GST-IL13Rα1 on Glutathione-Sepharose 4B beads incubated with LNCaP whole cell lysate at 4 °C overnight; immunoblot with anti-HK2; only the target purified. For orientation: In western blotting, separated proteins are transferred to a membrane and probed.

B1: hexokinase 2 (endogenous, LNCaP) (enzyme, UniProt P52789 1-917)
chain: MIASHLLAYFFTELNHDQVQKVDQYLYHMRLSDETLLEISKRFRKEMEKGLGATTHPTAAVKMLPTFVRSTPDGTEHGEFLALDLGGTNFRVLWVKVTDNGLQKVEMENQIYAIPEDIMRGSGTQLFDHIAECLANFMDKLQIKDKKLPLGFTFSFPCHQTKLDESFLVSWTKGFKSSGVEGRDVVALIRKAIQRRGDFDIDIVAVVNDTVGTMMTCGYDDHNCEIGLIVGTGSNACYMEEMRHIDMVEGDEGRMCINMEWGAFGDDGSLNDIRTEFDQEIDMGSLNPGKQLFEKMISGMYMGELVRLILVKMAKEELLFGGKLSPELLNTGRFETKDISDIEGEKDGIRKAREVLMRLGLDPTQEDCVATHRICQIVSTRSASLCAATLAAVLQRIKENKGEERLRSTIGVDGSVYKKHPHFAKRLHKTVRRLVPGCDVRFLRSEDGSGKGAAMVTAVAYRLADQHRARQKTLEHLQLSHDQLLEVKRRMKVEMERGLSKETHASAPVKMLPTYVCATPDGTEKGDFLALDLGGTNFRVLLVRVRNGKWGGVEMHNKIYAIPQEVMHGTGDELFDHIVQCIADFLEYMGMKGVSLPLGFTFSFPCQQNSLDESILLKWTKGFKASGCEGEDVVTLLKEAIHRREEFDLDVVAVVNDTVGTMMTCGFEDPHCEVGLIVGTGSNACYMEEMRNVELVEGEEGRMCVNMEWGAFGDNGCLDDFRTEFDVAVDELSLNPGKQRFEKMISGMYLGEIVRNILIDFTKRGLLFRGRISERLKTRGIFETKFLSQIESDCLALLQVRAILQHLGLESTCDDSIIVKEVCTVVARRAAQLCGAGMAAVVDRIRENRGLDALKVTVGVDGTLYKLHPHFAKVMHETVKDLAPKCDVSFLQSEDGSGKGAALITAVACRIREAGQR
B1: the binding entry was “binds”.
